Results from the supplement of paper PMC10470496.
Where a name gives a salt, the structure may show the parent alone. Some of the results follow. Many values rest on one well or one pass, so single values are uncertain.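 The three strains are clinical Candida auris isolates from the CDC resistance isolate bank, from clades III, IV and I, grown in RPMI-1640 at 35°C. Growth is background-corrected OD600 relative to vehicle-only wells on the same plate; a hit meant over 50% inhibition in at least two strains plus a plate-corrected B-score above 0.1.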

Assays:
Assay in all cases: growth relative to vehicle control (OD600 ratio) (fraction); higher = less inhibition
Details in all cases: 24 h
C. auris AR-384 = system: C. auris AR-384
C. auris AR-386 = system: C. auris AR-386
C. auris AR-387 = system: C. auris AR-387

| Structure (SMILES) | growth (C. auris AR-384; 1 µM) | growth (C. auris AR-384; 10 µM) | growth (C. auris AR-386; 1 µM) | growth (C. auris AR-386; 10 µM) | growth (C. auris AR-387; 1 µM) | growth (C. auris AR-387; 10 µM) |
| --- | --- | --- | --- | --- | --- | --- |
| Nc1nc(N)nc(NC2CC2)n1 [Cyromazine] | 0.97 | 0.85 | 0.9 | 1.18 | 0.92 | 1.13 |
| Cc1cc(C(C#N)c2ccc(Cl)cc2)c(Cl)cc1NC(=O)c1cc(I)cc(I)c1O (stereo unspecified) [Closantel Sodium] | 1.04 | 0.62 | 1.03 | 0.43 | 0.94 | 0.56 |
| COc1cc2c(cc1OC)C1CC(=O)C(CC(C)C)CN1CC2 (stereo unspecified) [Tetrabenazine (Xenazine)] | 0.73 | 0.58 | 0.71 | 0.99 | 0.75 | 0.76 |
| CC(=O)NC1CCSC1=O (stereo unspecified) [Citiolone] | 1.21 | 1.22 | 0.94 | 1.15 | 0.68 | 0.87 |
| CCC(COC(=O)c1cc(OC)c(OC)c(OC)c1)(c1ccccc1)N(C)C (stereo unspecified) [Trimebutine] | 0.94 | 1.06 | 0.68 | 1.11 | 0.79 | 0.92 |
| CCCCCCC(=O)O[C@H]1CC[C@H]2[C@@H]3CCC4=CC(=O)CC[C@]4(C)[C@H]3CC[C@]12C [Testosterone Enanthate] | 0.74 | 0.73 | 0.84 | 0.95 | 0.74 | 0.78 |
| NCC1(CC(=O)O)CCCCC1 [Gabapentin] | 1.36 | 1.05 | 1.12 | 1.29 | 1.17 | 1.15 |
| CCN(C)C(=O)Oc1cccc([C@H](C)N(C)C)c1 [Rivastigmine Tartrate] | 1.27 | 1.11 | 1.1 | 1.29 | 1.23 | 1.06 |
| CNC1CC(N)C(O)C(OC2OC(CO)C(O)C3OC4(OC(C(N)CO)C(O)C(O)C4O)OC23)C1O (stereo unspecified) [Hygromycin B] | 1.2 | 1.14 | 1.1 | 1.22 | 0.94 | 1.27 |
| C/C(=C\c1csc(C)n1)[C@@H]1C[C@@H]2O[C@]2(C)CCC[C@H](C)[C@H](O)[C@@H](C)C(=O)C(C)(C)[C@@H](O)CC(=O)O1 [Patupilone (EPO906, Epothilone B)] | 1.02 | 1.1 | 1.32 | 1.23 | 1.31 | 1.19 |
| O=C(O)c1nn(Cc2ccc(Cl)cc2Cl)c2ccccc12 [Lonidamine] | 0.99 | 1.01 | 1.12 | 1.06 | 0.99 | 0.82 |
| CN[C@@H]1[C@@H](O)[C@@H](O[C@@H]2[C@@H](O)[C@H](O[C@H]3O[C@H](CN)CC[C@H]3N)[C@@H](N)C[C@H]2N)OC[C@]1(C)O.CN[C@@H]1[C@@H](O)[C@@H](O[C@@H]2[C@@H](O)[C@H](O[C@H]3O[C@H]([C@@H](C)N)CC[C@H]3N)[C@@H](N)C[C@H]2N)OC[C@]1(C)O.CN[C@@H]1[C@@H](O)[C@@H](O[C@@H]2[C@@H](O)[C@H](O[C@H]3O[C@H]([C@@H](C)NC)CC[C@H]3N)[C@@H](N)C[C@H]2N)OC[C@]1(C)O [Gentamicin Sulfate] | 0.92 | 0.76 | 0.75 | 1.08 | 0.8 | 0.98 |
| O=[N+]([O-])C(Br)(CO)CO [Bronopol] | 0.82 | 0.54 | 0.59 | 0.57 | 0.55 | 0.49 |
| COc1ccc(C(=O)N2CCCC2=O)cc1 [Aniracetam] | 0.92 | 1 | 0.74 | 0.8 | 0.82 | 0.95 |
| Cc1ccccc1-n1c(CF)nc2ccc(N)cc2c1=O [Afloqualone] | 0.71 | 0.78 | 0.9 | 1 | 0.83 | 0.88 |
| CCOC(=O)Nc1ccc(NCc2ccc(F)cc2)cc1N [Retigabine] | 1.26 | 1.02 | 0.82 | 1.13 | 0.79 | 0.83 |
| CC(C)N(CCC(C(N)=O)(c1ccccc1)c1ccccn1)C(C)C (stereo unspecified) [Disopyramide Phosphate] | 1.21 | 1.27 | 1.12 | 0.88 | 1.07 | 0.91 |
| C=CCN1CC[C@]23c4c5ccc(O)c4O[C@H]2C(=O)CC[C@@]3(O)[C@H]1C5 [Naloxone HCl Dihydrate] | 0.93 | 0.77 | 1.05 | 0.68 | 0.82 | 0.6 |
| Cc1cccc(C)c1NC(=O)CN1CCCC1=O [Nefiracetam] | 0.81 | 0.81 | 0.56 | 1 | 0.84 | 0.71 |
| Oc1cc(Cl)ccc1Oc1ccc(Cl)cc1Cl [Triclosan] | 0.91 | 0.41 | 0.6 | 0.43 | 0.68 | 0.42 |
| CCOC(=O)c1cncn1[C@H](C)c1ccccc1 [Etomidate] | 0.9 | 1.08 | 1.25 | 1.42 | 1.54 | 1.59 |
| N=C(N)NN [Aminoguanidine hydrochloride] | 0.96 | 0.97 | 0.67 | 0.76 | 0.67 | 0.64 |
| C[N+]1(C)CCCC(OC(=O)C(O)(c2ccccc2)c2ccccc2)C1 (stereo unspecified) [Mepenzolate Bromide] | 1.33 | 1.41 | 1.42 | 1.44 | 1.37 | 1.12 |
| NCCc1c[nH]c2ccc(O)cc12 [Serotonin HCl] | 0.82 | 0.9 | 0.52 | 1.09 | 0.89 | 0.94 |
| C[C@]12CC[C@H]3[C@@H](CC[C@@]45O[C@@H]4C(O)=C(C#N)C[C@]35C)[C@@H]1CC[C@@H]2O [Trilostane] | 0.79 | 1.03 | 0.95 | 0.8 | 0.78 | 0.94 |
| CN1C(=O)CCS(=O)(=O)C1c1ccc(Cl)cc1 (stereo unspecified) [Chlormezanone] | 1.15 | 1.05 | 0.95 | 1.07 | 0.76 | 1.13 |

Random excerpt: 2 entries already listed, in no set order.

| Structure (SMILES) | growth (C. auris AR-384; 1 µM) | growth (C. auris AR-384; 10 µM) | growth (C. auris AR-386; 1 µM) | growth (C. auris AR-386; 10 µM) | growth (C. auris AR-387; 1 µM) | growth (C. auris AR-387; 10 µM) |
| --- | --- | --- | --- | --- | --- | --- |
| CN1C(=O)CCS(=O)(=O)C1c1ccc(Cl)cc1 (stereo unspecified) [Chlormezanone] | 1.15 | 1.05 | 0.95 | 1.07 | 0.76 | 1.13 |
| Cc1ccccc1-n1c(CF)nc2ccc(N)cc2c1=O [Afloqualone] | 0.71 | 0.78 | 0.9 | 1 | 0.83 | 0.88 |
